Here are results for 11 sequences from paper PMC8759039.

The target of data set [1] is EjRAV2 (Eriobotrya japonica) (UniProt A0A482LTM5). Kind of data set: EMSA. The note with it: Beyotime EMSA/Gel Shift kit, chemiluminescent biotin detection; pH and temperature not stated; recombinant protein; residues 1-406; protein details: 6xHis (pET28a); label: biotin (ends).
Data set [2] concerns the target EjRAV1 (Eriobotrya japonica) (UniProt A0A482LZ61). Description: EMSA. The note with it: Beyotime EMSA/Gel Shift kit, chemiluminescent biotin detection; pH and temperature not stated; recombinant protein; residues 1-403; protein details: 6xHis (pET28a); label: biotin (ends).

A negative result means that nothing was seen under these conditions. At least one verdict was read from the data and is not stated in words by the source.

As for “AAAGGGTAGGTGTGTTGGTTGCCTAAGGTCAATCATC (double strand) [EjSOC1-1-P4]”, the binding result in data set [1] and in data set [2] was “no binding” each time.
Take “AATTAATGCTATAGGCTTGTTGCGTTTTCGACTTCTGATTGG (double strand) [EjSOC1-1-P2]”: the binding result in data set [1] and in data set [2] was “no binding” in each case.
Turning to “AGCAATACAGCATGCAACGCAACAGAATATAAATAGCCAATAGG (double strand) [EjFT2-P5]”, the binding result in data set [1] and in data set [2] was “no binding” in each case.
Consider “CAAAATAAAATGAAAAGTACAACAAATTAGGAGACAAGATGCCT (double strand) [EjFT2-P4]”, for which the binding result in data set [1] and in data set [2] was “no binding” each time.
For “CAGGATCTATTGCCTTCCACCTGATCTATACCATCATTCCA (double strand) [EjSOC1-1-P5]”, the binding result in data set [1] and in data set [2] was “no binding” throughout.
In the case of “CATTTCTCAAATAGCACTTATCAACATATATTCTGGATCAATTCAGG (double strand) [EjFT2-P1]”, the binding result in data set [1] and in data set [2] was “no binding” each time.
With “GCACAAAATTTTGGAATCATCTTGTTGAGGATGAATTTCACAGTGAT (double strand) [EjFT2-P2]”, the binding result in data set [1] and in data set [2] was “no binding” in each case.
For the sequence “GGAAAAGGGCAAAATGTGTTGTGCCAGACAAGGTGG (double strand) [EjSOC1-1-P1]”, the binding result in data set [1] and in data set [2] was “no binding” in each case.
Take “GGTTAAGTAATAATCTAATAATCAACAATCACATTATTTAGTT (double strand) [EjSOC1-2-P1]”: the binding result in data set [1] and in data set [2] was “no binding” throughout.
Consider “GTAGTCGTACGGACGATGTTGATGTATTGCTAACATTGT (double strand) [EjSOC1-1-P3]”, for which the binding result in data set [1] and in data set [2] was “no binding” in each case.
Turning to “GTGTATGGATATAAAGTTCAACATTGAAAATCTAAAATAAT (double strand) [EjFT2-P3]”, the binding result in data set [1] and in data set [2] was “no binding” in each case.
